From PubChem BioAssay AID1296 (Columbia University Molecular Screening Center, 2008)
The whole screen tested about 130,000 compounds, of which about 1,000 (0.77%) were called active. Inconclusive means that the source gave no clear call. Such entries were picked first, then a sample of the others.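 How the source made its calls: active means activation at 2 µM above a set limit, confirmed on inspection of the cell images; inconclusive means above the set limit but not confirmed on image inspection; inactive means the rest.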

Assay: activators of insulin promoter-driven GFP, primary screen, imaging, TRM-6 cells (human fetal islet line), eGFP reporter, cell count (AID 1296;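 further: share of cells whose green reporter signal exceeds an intensity cutoff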)
Conditions: at 2 µM, stronger effect = higher value, plate-scaled: unstimulated 0, stimulated control 100
Outline: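 Assay system: TRM-6 human fetal islet cells, insulin promoter–eGFP reporter; Also added: 0.75 µM tamoxifen as reporter inducer; Schedule: 15 h tamoxifen pre-treatment, 48 h compound treatment at 37 °C; Signal: fixed-cell fluorescence microscopy, eGFP plus Hoechst; Read-out: percent activation from GFP-positive cell fraction; Control set: stimulated and unstimulated wells.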
For `N/C(=N\OC(=O)CCc1ccccc1)c1ccc(Cl)cc1`, the activation was inconclusive: 126%. In the case of `C=CCOc1c(Br)cc(/C=N/n2c(CC)n[nH]c2=S)cc1Br`, the activation is reported as inactive: 3.85%. For `S=C(NCc1ccco1)N1CCN(Cc2ccc(Cl)cc2Cl)CC1`, the activation was inactive: -3.57%. With `CCOc1cc(S(=O)(=O)NCc2ccccn2)ccc1Cl` the activation was inconclusive: 403%. In the case of `C=CCn1c(O)c(N=NC(=S)Nc2ccc(OC)c(Cl)c2)c2ccccc21`, the activation is reported as inconclusive: 256% [cytotoxic]. With `O=C(Nc1ccccc1C(=O)O)c1ccc(Br)c(S(=O)(=O)NCc2ccccc2)c1` the activation was inconclusive: 224%. For `Cc1ccc(NC(=O)/C=C/c2ccco2)nc1`, the activation was inconclusive: 254% [cytotoxic]. With `OCCOCCOc1ccccc1OCCOCCO` the activation was inconclusive: 88.2%. With `COc1ccc(CCNc2nc(C)cc(=O)[nH]2)cc1OC` the activation was inconclusive: 413%. With `Cc1ccc(S(=O)(=O)Nc2cccc3c2CCCC3)cc1` the activation was inactive: 2.78%. With `CC1CN(C(=O)/C=C/c2ccc([N+](=O)[O-])s2)CC(C)O1` (stereo not given) the activation was inconclusive: 300%. In the case of `CCOc1ccc(N2C(=O)C3C(c4ccc(O)cc4)NC(CCSC)(C(=O)OC)C3C2=O)cc1` (stereo not given), the activation is reported as inactive: 0%. For `COc1ccc(CCNC(=O)CO/N=C/c2cc3c(cc2Br)OCO3)cc1OC`, the activation was inconclusive: 160%. For `Nc1cc(Cl)nc(N/N=C/c2c(O)ccc3ccccc23)n1`, the activation was inconclusive: 233% [cytotoxic]. For `C=CCSc1nnc(-c2ccncc2)n1-c1ccc(OCC)cc1`, the activation was inconclusive: 444%. For `Cn1c(N)c(C(=O)COC(=O)c2ccc3c(c2)OCCO3)c(=O)n(C)c1=O`, the activation was inactive: -9.68%. For `Cc1nn2c3c(cnc2c1-c1ccccc1)C(=O)CC(c1ccco1)C3` (stereo not given), the activation was active: 136%. In the case of `O=[N+]([O-])c1ccc(-c2ccc(/C=N/Nc3nc(NCc4ccccc4)nc(N4CCOCC4)n3)o2)cc1`, the activation is reported as active: 200%. For `COc1ccnc(Nc2cccc(C)c2)c1C#N`, the activation was inconclusive: 197%. With `COc1ccc(C(=O)c2ccc(N(C)C)cc2)c(OC)c1` the activation was inconclusive: 127%. For `O=C(Nc1ccccc1)c1ccc2nsnc2c1`, the activation was active: 193%. With `O=C(/C=C/c1ccc(OCCCF)cc1)NCc1ccc(Cl)cc1` the activation was active: 223%. In the case of `Cc1cccc(-c2cc(C(=O)Nc3ccc4c(c3)OCCO4)c3ccccc3n2)c1`, the activation is reported as inactive: -3.33%. With `Cn1c(=NC(=O)CCl)sc2ccccc21` the activation was inconclusive: 186% [cytotoxic]. In the case of `Cc1cc2cc3c(cc2nc1SCC(=O)N1c2ccccc2CC1C)OCO3` (stereo not given), the activation is reported as inconclusive: 431%. In the case of `S=C(Nc1cccc2ccccc12)NN1CCOCC1`, the activation is reported as inconclusive: 181%. For `Cc1nc2scc(-c3ccc(Cl)cc3)c2c(=O)o1`, the activation was inactive: 3.23%. In the case of `CCOC(=O)C(C)Sc1nc2ccccc2c(=O)n1CC` (stereo not given), the activation is reported as active: 426%. With `Cn1nc(CC(=O)Nc2ccc(N3CCN(C(=O)OC(C)(C)C)CC3)cc2)c2ccccc2c1=O` the activation was inactive: 5.26%. With `CSc1ccccc1NC(=O)Cc1ccc(Br)cc1` the activation was inactive: -3.85%. With `COc1ccc(NC(=O)/C(Cl)=C(/Cl)S(=O)(=O)Cc2ccc(C)cc2)cn1` the activation was inconclusive: 223% [cytotoxic]. For `Clc1ccc(OCc2nnc(-c3ccccc3Br)o2)c(Cl)c1`, the activation was active: 120%. In the case of `Cc1ccc2c(CC(=O)OCC(=O)Nc3ccc(Cl)cn3)coc2c1`, the activation is reported as inconclusive: 100%. In the case of `COc1cc(NS(=O)(=O)c2ccc(Br)s2)cc(OC)c1`, the activation is reported as inactive: 257%. In the case of `O=C(OCn1ncc(Br)c(Br)c1=O)c1c(F)cccc1F`, the activation is reported as inconclusive: 257% [cytotoxic]. With `CCCCC1CCC(C(=O)NCc2ccc3c(c2)OCO3)CC1` (stereo not given) the activation was inactive: -3.33%. With `CC(=O)c1c(C)[nH]c(C)c1C(C)=O` the activation was inconclusive: 146%. With `FC(F)(F)c1cnc(Sc2nnc(-c3cccs3)n2CC2CCCO2)c(Cl)c1` (stereo not given) the activation was inactive: -8.11%. For `Clc1ccc(Cn2cc(/C=N/n3cnnc3)c3ccccc32)c(Cl)c1`, the activation was inconclusive: 500%. With `CCN(CC)S(=O)(=O)c1ccc(NC(=O)Cn2c(=O)sc3ccccc32)cc1` the activation was inconclusive: 475%. With `COC(=O)c1nn(-c2ccccc2)c(=O)cc1Sc1ccc(Cl)cc1` the activation was inactive: 122%. For `Cc1ccc(C(=O)Nn2cnnc2)cc1[N+](=O)[O-]`, the activation was inconclusive: 233%. For `O=C1OCCN1C(=O)[C@H]1[C@H](c2ccc([N+](=O)[O-])cc2)C(c2cccc(Cl)c2)=NN1c1ccccc1`, the activation was active: 273%. For `O/C(=C\c1ccc2ccccc2n1)c1ccc(O)cc1O`, the activation was inactive: 143%. For `CCCN(CCC)C1=N/C(=C\c2ccco2)C(=O)N1c1ccccc1`, the activation was inactive: 0%. In the case of `CC(=O)c1cccc(N(CC(=O)N2CCOCC2)S(C)(=O)=O)c1`, the activation is reported as inconclusive: 412%. For `COCCNC(=O)CSc1nc2cc(OC)c(OC)cc2c(=O)n1CCc1ccc(S(N)(=O)=O)cc1`, the activation was inactive: 0%. For `COCCNC(=O)c1ccccc1-c1nc(-c2ccccc2OC)no1`, the activation was inconclusive: 650%. With `O=C(Nc1ccc(F)cc1)NC1CCCCC1` the activation was inconclusive: 400%. For `O=C(c1cc2sccc2n1Cc1ccccc1)N1CCCc2ccccc21`, the activation was inconclusive: 78.6%. With `CCCCCCCCOC(=O)CCn1[nH]c(=O)c2ccccc2c1=O` the activation was inactive: 0%. For `Cc1cccc(-c2nnc(-c3cccc(NC(=O)Cc4cccs4)c3)o2)c1`, the activation was inactive: 4.17%. In the case of `CCOC(=O)c1cc2sc(C)cc2n1CC(=O)NCc1ccc(F)cc1`, the activation is reported as inactive: -81.8%. For `COc1ccc(C(C(=O)NC2CCCCC2)N(C(=O)CCl)c2ccc(C)cc2)cc1` (stereo not given), the activation was inconclusive: 614% [cytotoxic]. With `COc1ccc(CNC(=O)CN(CC2CCCO2)C(=O)CNS(=O)(=O)c2ccccc2)cc1` (stereo not given) the activation was inconclusive: 182%. In the case of `COc1ccc(NC(=O)CSc2nnc(Cn3nnc4ccccc43)n2C)cc1`, the activation is reported as inconclusive: 507%. In the case of `CC(Cc1cccs1)NC(=S)Nc1ccc(F)cc1` (stereo not given), the activation is reported as inconclusive: 84%. With `COc1ccc(COc2ccsc2C(=O)Nc2ccc(Cl)c(Cl)c2)cc1` the activation was inactive: -3.23%. With `CCCCc1cc(=O)oc2cc(C)cc(O)c12` the activation was inconclusive: 97.3%. With `O=C(NCc1ccccn1)c1ccc(Br)s1` the activation was active: 529%. For `O=C1Nc2ccccc2N(O)N1c1ccc(S(=O)(=O)N2CCCCCC2)cc1`, the activation was inactive: 7.69%. For `COc1cc(CCNc2ccc3nnc(-c4ccccc4)n3n2)cc(OC)c1OC`, the activation was inactive: -2.44%. With `CS(=O)(=O)N1CCN(C/C=C/c2ccccc2)CC1` the activation was inconclusive: 77.4%. With `CCC/C=N/NC(=O)C1COc2ccccc2O1` (stereo not given) the activation was inactive: 7.14%. With `COc1cccc(CC(NC(C)=O)C(=O)NC2CCN(c3nnnn3-c3ccccc3)CC2)c1` (stereo not given) the activation was inconclusive: 129%. In the case of `N#Cc1sc2nc(-c3cccs3)cc(-c3ccccc3)c2c1N`, the activation is reported as inactive: 0%. With `O=C(O)CC12CC3CC(C1)CC(n1cncn1)(C3)C2` the activation was inactive: 0%. For `COC(=O)c1ccc2c(=O)n(CC3CCCO3)c(SCC(=O)NCCc3ccc(S(N)(=O)=O)cc3)nc2c1` (stereo not given), the activation was inactive: 7.14%. For `Cc1ccc(-c2cccc(NC(=O)C3C(C(=O)O)[C@@H]4C=C[C@H]3C4)c2)o1` (stereo not given in full), the activation was active: 154%. With `N#Cc1ccc(C(=O)Nc2ccc(N3CCN(C(=O)c4ccco4)CC3)cc2)c(F)c1` the activation was inconclusive: 128%. For `COc1ccc[nH]c1=O`, the activation was active: 154%. In the case of `Cc1ccc(OCC(=O)NCCC2=CCCCC2)cc1`, the activation is reported as inconclusive: 508%. For `N#Cc1c(SCc2cccc(Cl)c2)sc(C(=O)c2ccccc2)c1N`, the activation was inconclusive: 457%. With `Cc1ccc(OCCn2c(Br)nc3c2c(=O)n(C)c(=O)n3C)cc1` the activation was inconclusive: 400%. For `Cc1nc2sc(C(c3ccco3)N3CCN(c4ccccc4F)CC3)c(O)n2n1` (stereo not given), the activation was inconclusive: 80%. For `c1cnc(SCCCOc2ccc3ccccc3c2)nc1`, the activation was inconclusive: 471%. For `CCOc1ccc(C(=O)CSCC(=O)O)cc1`, the activation was inactive: 5.88%. With `CCOc1ccc(OCCN2C(=O)NC(Cc3c[nH]c4ccccc34)C2=O)cc1` (stereo not given) the activation was active: 533%. In the case of `Oc1cc2c(cc1CN1CCN(c3cccc(C(F)(F)F)c3)CC1)CCC2`, the activation is reported as active: 81.6%. For `CCn1nnnc1Oc1ccc(Cl)cc1`, the activation was inconclusive: 560%. With `CCCn1c(CNS(=O)(=O)c2ccc(C)cc2)nc2ccccc21` the activation was inconclusive: 150%. For `CCC(CC)c1nnc(NC(=O)/C=C/c2ccco2)s1`, the activation was inconclusive: 213%. With `COc1ccc(N2CCN(C(=O)C34CCC(C)(C(=O)C3)C4(C)C)CC2)cc1` (stereo not given) the activation was inactive: -5.71%. In the case of `Cc1cc(C)c(C#N)c(SCc2ccccc2)n1`, the activation is reported as inconclusive: 514%. With `N#C/C(=C\c1ccc(Cl)cc1Cl)c1n[nH]c(Cn2cncn2)n1` the activation was inconclusive: 78.6%. With `CCOC(=O)C1CCCN(S(=O)(=O)c2cccs2)C1` (stereo not given) the activation was active: 462%. With `CCC1CCCCN1CCCNC(=O)CC1Oc2ccc(C)cc2NC1=O` (stereo not given) the activation was inconclusive: 171%. In the case of `Cc1ccc(C(=O)Nc2cc(=O)n(C)c(=O)n2C)o1`, the activation is reported as inconclusive: 508%. With `CN(C)C(CNC(=S)Nc1cccc(Cl)c1)c1cccnc1` (stereo not given) the activation was inactive: 0%. With `Cc1cccc(OCCCC(=O)NC(C)c2ccccc2)c1` (stereo not given) the activation was active: 85.2%. For `O=C(COC(=O)c1cccc(Br)c1)NCCc1ccc(F)cc1`, the activation was inactive: -3.85%. With `CCN(CC)c1ccc2cc(-c3nc4ccccc4n3C)c(=O)oc2c1` the activation was inconclusive: 138% [cytotoxic]. For `CS(=O)(=O)N1N=C(c2ccccc2)CC1c1ccc2c(c1)OCO2` (stereo not given), the activation was inconclusive: 538%. With `COc1cccc(NC(=O)NCCC2=CCCCC2)c1` the activation was inconclusive: 400%. In the case of `CCOC(=O)c1cnn2c1[nH]c(=O)c1ccccc12`, the activation is reported as inconclusive: 182%.
